# The other results are listed elsewhere or left out. Shown are side measurements of this screen, not its main read-out; they come without a call. The list favours compounds with an active or inconclusive main result. The note in brackets gives the kind of curve behind each potency; many fits are weak.
# Assay: IkB Signaling
# Conditions: ABC-DLBCL IkBa-CBG/CBR dual luciferase ratio (green luciferase fused to IkBa over red control in OCI-Ly3 lymphoma cells), 4 h
# In short: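 Curves were fitted separately to fusion (green), unfused (red) and ratio luminescence, then classed by r2, magnitude and activity. Cells: OCI-Ly3, 4 h compound plus doxycycline at 37C; 10 uM MG-132 defined full response.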
# [1] = measured here: control luc red channel unless noted
# [2] = measured here: IkB-luc green channel
# [3] = measured here: control luc red channel
smiles,measurement,setting,value
CCOC(=O)c1c(-c2ccccc2)oc2ccc(N(C(C)=O)S(=O)(=O)c3ccccc3)cc12,AC50,[1],"3.98 µM [falling, full curve]"
Cc1ccc(C(=O)N2CCN(c3cccc(Cl)c3)CC2)cc1C,AC50,[1],"12.6 µM [falling, partial curve]"
COc1ccccc1CNC(=O)C1CCN(C(=O)c2sccc2-n2cccc2)CC1,AC50,[1],"39.8 µM [falling, single point]"
COc1ccccc1CNC(=O)c1cc2c(-c3ccc(Cl)cc3)nn(C)c2s1,AC50,[1],"3.98 µM [falling, full curve, poor fit]"
COCCOC(=O)c1c(C)oc2ccc(OCc3cc(C(=O)OC)oc3C)cc12,AC50,[1],"25.1 µM [falling, single point]"
O=C(CN(c1ccc(Cl)c(C(F)(F)F)c1)S(=O)(=O)c1ccccc1)Nc1cccnc1,AC50,[1],"31.6 µM [falling, partial curve]"
CCc1ccccc1NC(=O)CSc1nnc(-c2ccccc2)c(-c2ccccc2)n1,AC50,[1],"12.6 µM [falling, partial curve]"
CCC1Oc2nc(SC)nnc2-c2ccccc2N1C(=O)c1ccccc1 (stereo not given),AC50,[1],"1.58 µM [falling, full curve]"
COc1cc(OC)cc(-c2cc3nc(C)c(CCC(=O)Nc4ccccc4OC)c(C)n3n2)c1,AC50,[1],"10 µM [falling, partial curve]"
CCc1ccc2[nH]c(=O)c(CN(Cc3ccc(OC)cc3)Cc3nnnn3CCOC)cc2c1,AC50,[1],"39.8 µM [falling, single point]"
Cc1ccc(C(C)C)c(OCCn2c(=O)oc3ccccc32)c1,AC50,[1],"20 µM [falling, partial curve]"
COCCNC(=O)Cn1c(=O)c2cccn2c2ccc(F)cc21,AC50,[1],"15.8 µM [falling, single point]"
CN(Cc1ccccc1)S(=O)(=O)c1ccc2c(c1)n(C)c(=O)n2C,AC50,[1],"25.1 µM [falling, partial curve]"
Cc1cc(C)cc(Oc2nc3ccccn3c(=O)c2/C=C(\C#N)c2nc3ccccc3s2)c1,AC50,[1],"6.31 µM [falling, single point]"
Cn1c(=O)cc(SCC(=O)N2CCN(c3ccccc3F)CC2)c2ccc(Cl)cc21,AC50,[1],"15.8 µM [falling, partial curve]"
Cc1ccccc1OCCSc1nc2ccc(NC(=O)c3cccs3)cc2s1,AC50,[1],"15.8 µM [falling, partial curve]"
CCn1nc(-c2ccccc2)c(-c2ccccc2)c(C(=O)Nc2ccc(NC(C)=O)cc2)c1=O,AC50,[1],"20 µM [falling, partial curve]"
Cc1ccc(-c2csc(=Nc3ccccc3)n2Cc2ccc3c(c2)OCO3)cc1,AC50,[1],"12.6 µM [falling, partial curve]"
CCOC(=O)C1CCCN(C(=O)Cn2ncc3c4ccccc4n(Cc4ccccc4)c3c2=O)C1 (stereo not given),AC50,[1],"20 µM [falling, single point]"
COc1ccccc1NC(=O)c1cc2c(C)nn(-c3ccccc3)c2s1,AC50,[1],"31.6 µM [falling, single point]"
COc1ccc(NC(=O)c2sc3nc(C(F)(F)F)cc(C)c3c2N)cc1OC,AC50,[1],"39.8 µM [rising, partial curve]"
Cc1ccc(NC(=O)c2nc(S(C)(=O)=O)ncc2N(Cc2ccco2)Cc2cccs2)cc1C,AC50,[1],"7.94 µM [falling, partial curve]"
Cc1cccc(NC(=O)CCNS(=O)(=O)c2ccc3c(c2)CCN3C(=O)C2CC2)c1,AC50,[1],"0.2 µM [falling, full curve, poor fit]"
Cc1ccc(NC(=O)Cn2cc(C(=O)C3CCCCC3)c3ccccc32)cc1,AC50,[1],"15.8 µM [falling, partial curve]"
CCOc1ccc(-c2cc(CCCC(=O)NCCc3cc(OC)c(OC)c(OC)c3)no2)cc1,AC50,[1],"3.98 µM [falling, partial curve]"
CCOc1ccc(NC(=O)Cn2c(=O)n(CCCS(=O)(=O)C3CCCCC3)c(=O)c3ccccc32)cc1,AC50,[1],"39.8 µM [falling, single point]"
COC(=O)c1c(C)oc2ccc(N(C(=O)c3ccncc3)S(=O)(=O)c3cc(C)ccc3C)cc12,AC50,[1],"7.94 µM [falling, partial curve]"
Cc1ccc(C(=O)Nc2ccccc2)cc1S(=O)(=O)Nc1ccccc1,AC50,[1],"39.8 µM [falling, single point]"
O=S(=O)(/N=S1/CC=CCN1S(=O)(=O)c1ccccc1)c1ccccc1 (stereo not given),AC50,[2],"39.8 µM [rising, single point]"
same,AC50,[3],"39.8 µM [rising, single point]"
Cc1ccc(-n2ncc3c(N4CCC(Cc5ccccc5)CC4)ncnc32)cc1C,AC50,[1],"12.6 µM [falling, partial curve]"
COCCCn1c(-c2ccc(S(=O)(=O)N3CCOCC3)cc2)csc1=Nc1ccccc1,AC50,[1],"10 µM [falling, partial curve]"
O=C(NCCN1CCCCC1)c1ccc(Cn2c(SCc3ccccc3)nc3cccnc32)cc1,AC50,[1],"25.1 µM [falling, single point]"
COc1ccc(CNC(=O)c2cc3sccc3n2Cc2ccc(C)cc2)cc1,AC50,[1],"25.1 µM [falling, partial curve]"
Nc1nnnn1/N=C/C(Br)=C/c1ccccc1,AC50,[2],"0.631 µM [rising, full curve, poor fit]"
same,AC50,[3],"6.31 µM [falling, partial curve]"
Cc1ccc(NC(=O)C2CCN(c3nc(-c4ccc(C(C)C)cc4)no3)CC2)c(Cl)c1,AC50,[1],"15.8 µM [falling, partial curve]"
Cc1nn(Cc2ccc(Cl)cc2Cl)c(C)c1NC(=O)c1nc2n(n1)C(C(F)F)CC(C)N2 (stereo not given),AC50,[1],"12.6 µM [falling, partial curve]"
Cc1ccc2c(CNCc3ccc(C)o3)c(C(=O)O)n(Cc3ccc(F)cc3)c2c1,AC50,[1],"25.1 µM [falling, partial curve]"
O=C(c1ccc2c(c1)N(Cc1ccc(Cl)cc1)C(=O)c1ccccc1S2=O)N1CCCCC1 (stereo not given),AC50,[1],"25.1 µM [falling, partial curve]"
O=C(CSc1ccccc1)N1CCc2c([nH]c3ccccc23)C1c1ccc(Cl)cc1 (stereo not given),AC50,[1],"6.31 µM [falling, partial curve]"
COc1ccc(NC(=O)Cn2nc3c(cc2=O)CCCC3)cc1Cl,AC50,[1],"0.1 µM [rising, single point]"
O=C(NCc1ccc(Cl)cc1)c1cc2ccc3cccnc3c2[nH]1,AC50,[1],"31.6 µM [falling, partial curve, poor fit]"
CC(C)c1ccc(Cc2cn3cc(-c4cc5ccccc5oc4=O)nc3s2)cc1,AC50,[1],"794 nM [rising, full curve] [measured here: IkB-luc green channel]"
COc1ccc(OC)c(C2=NS(=O)(=O)N(C)C(C(=O)Nc3ccc(C(C)=O)cc3)=C2)c1,AC50,[1],"10 µM [falling, partial curve]"
Cc1cccc(C)c1NC(=O)NCCCN1CCN(c2ccccc2)CC1,AC50,[1],"39.8 µM [falling, single point]"
CNC(=O)C1CCC(Cn2c(=O)c3sccc3n(CC(=O)NCc3ccc(C)cc3)c2=O)CC1 (stereo not given),AC50,[1],"7.94 µM [falling, full curve, poor fit]"
Cc1ccc2cc3cc(C(=O)N4CC(C)CC(C)C4)oc3nc2c1 (stereo not given),AC50,[1],"20 µM [falling, single point]"
Cc1ccc(C)c(NC(=O)CCCn2c(C)c3cnn(-c4ccccc4)c(=O)c3c2C)c1,AC50,[1],"10 µM [falling, partial curve]"
Cc1ccccc1C(=O)Nc1sc2c(c1C(=O)O)CCC(C(C)(C)C)C2 (stereo not given),AC50,[1],"10 µM [falling, partial curve]"
O=C(CSc1nc2c([nH]c3ccccc32)c(=O)n1-c1ccccc1)N1CCCc2ccccc21,AC50,[1],"31.6 µM [rising, partial curve]"
COc1ccc(NC(=O)c2ccco2)cc1NC(=O)c1ccc(C)cc1,AC50,[1],"0.501 µM [rising, partial curve]"
Cc1cccc(OCc2nc(C#N)c(NCc3ccc4c(c3)OCO4)o2)c1,AC50,[2],"31.6 µM [falling, single point]"
same,AC50,[3],"25.1 µM [falling, partial curve]"
Cc1ccc(NC(=O)c2cc(S(=O)(=O)NC3CCCCCC3)ccc2F)cc1F,AC50,[1],"15.8 µM [falling, partial curve]"
COc1ccc2[nH]cc(CCN=C(NC(=O)c3cccc(Cl)c3)Nc3nc(C)cc(C)n3)c2c1,AC50,[1],"20 µM [falling, partial curve]"
CC(NC(=O)COc1ccccc1)C(=O)OCC(=O)c1cc2ccccc2o1 (stereo not given),AC50,[1],"12.6 µM [falling, partial curve]"
O=C(CSc1nc2c([nH]c3ccccc32)c(=O)n1-c1ccccc1)NCc1ccc(F)cc1,AC50,[1],"39.8 µM [falling, single point]"
CN1CCN(c2oc(COc3ccc(-c4ccccc4)cc3)nc2C#N)CC1,AC50,[1],"20 µM [falling, partial curve]"
O=C(CN1C(=O)C2(SCC(=O)N2c2ccccc2)c2ccccc21)Nc1ccccc1C(F)(F)F (stereo not given),AC50,[1],"39.8 µM [falling, single point]"
O=S(=O)(c1cccc(-c2nnc(SC(F)F)n2-c2ccccc2)c1)N1CCCCC1,AC50,[1],"20 µM [falling, single point]"
COc1ccc(C(=O)c2cnc3ccc(C)cc3c2S(=O)(=O)c2ccccc2)cc1,AC50,[1],"1.58 µM [falling, full curve]"
Cn1cnnc1SCC(=O)c1cc2ccccc2oc1=O,AC50,[1],"12.6 µM [falling, partial curve]"
Cc1ccc(CN2C(=O)C(O)(CC(=O)c3ccc(C)cc3)c3ccccc32)cc1 (stereo not given),AC50,[2],"15.8 µM [rising, partial curve]"
same,AC50,[3],"25.1 µM [falling, partial curve]"

# A portion taken from the entries so far, as a working copy:
smiles,measurement,setting,value
Cc1ccc(C(=O)N2CCN(c3cccc(Cl)c3)CC2)cc1C,AC50,[1],"12.6 µM [falling, partial curve]"
COc1ccccc1CNC(=O)C1CCN(C(=O)c2sccc2-n2cccc2)CC1,AC50,[1],"39.8 µM [falling, single point]"
COc1ccccc1CNC(=O)c1cc2c(-c3ccc(Cl)cc3)nn(C)c2s1,AC50,[1],"3.98 µM [falling, full curve, poor fit]"
